Results: PubChem BioAssay AID2685 (National Center for Advancing Translational Sciences (NCATS), 2010)
This is one part of the list. Shown are side measurements of this screen, not its main read-out; they come without a call. Compounds called inactive in the main read-out are mostly missing here. Words in brackets tell the shape of the fitted curve; partial curves, single points and poor fits give uncertain potencies.

Test: qHTS Assay for Lipid Storage Modulators in Drosophila S3 Cells;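 on cell number change: cells counted by Cell Tracker Red CMTPX staining in the red channel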
Details: BODIPY lipid droplet fluorescence, 18-24 h; for cell number change: measured here: cell count max response, cells fed with added oleic acid
How it was run: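 Drosophila S3 cells loaded with oleic acid (400 uM, as added) and compounds at several concentrations; lipid droplets imaged by 488-nm laser-scanning cytometry, 500–530 nm intensity and object ratio to cell channel. Percent activity normalized to 20 uM Triacsin C.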

[1] = measured here: lipid fluorescence (Fed channel) AC50, cells fed with added oleic acid
[2] = measured here: cell number channel AC50, cells fed with added oleic acid

Row | SMILES | AC50 [1] | cell number change | AC50 [2]
1 | COc1ccc(S(=O)(=O)CC(=O)Nc2nnc(C(F)(F)F)s2)cc1 | 29100 nM [rising, single point] |  | 
2 | O=C(NCCCN1CCOCC1)c1ccccc1-c1ccccc1 |  | -2.51% | 
3 | Cc1ccc(NC(=O)CN(C)CC(=O)Nc2ccccc2Oc2ccccc2)cc1 | 4.61 nM [rising, full curve, poor fit] | -17.1% | 
4 | O=C(O)c1ccc2c(c1)C(=O)N(CCCCCCCN1C(=O)c3ccc(C(=O)O)cc3C1=O)C2=O | 2060 nM [rising, full curve] | 27% | 164 nM [rising, full curve, poor fit]
5 | CC(C)CCN(C)c1ccc(/C=N/n2cnnc2)cc1 | 2910 nM [rising, partial curve] |  | 
6 | COC(=O)CCCCCCCCC(O)CN1CCCCC1 (stereo unspecified) | 3260 nM [falling, full curve, poor fit] | -26.2% | 1460 nM [falling, full curve, poor fit]
7 | COCCNc1c(-c2ccc(OC)cc2)nc2ccc(Cl)cn12 | 580 nM [falling, single point] | -17.4% | 
8 | Cc1nn(Cc2ccccc2)c(C)c1CCC(=O)O | 731 nM [falling, full curve] | 9.35% | 
9 | Cc1ccc2oc(C(=O)NC3CCS(=O)(=O)C3)c(C)c2c1 (stereo unspecified) |  | -24.3% | 
10 | Cc1ccc2nc3c(c(Nc4cccc(O)c4)c2c1)CCC3 | 20600 nM [falling, partial curve] | -72.5% | 16400 nM [falling, partial curve, poor fit]
11 | Cc1ccccc1C(=O)N1CCC(C(=O)NN2C(=O)NC3(CCC(C)CC3)C2=O)CC1 (stereo unspecified) |  | -36.4% | 291 nM [falling, full curve]
12 | COc1ccccc1NS(=O)(=O)c1cc(NC(=O)c2[nH]c(C)c(C(C)=O)c2C)ccc1N1CCOCC1 | 411 nM [falling, partial curve, poor fit] |  | 
13 | COc1ccc(Nc2nc(NN)nc(Nc3ccc(OC)cc3)n2)cc1 | 130 nM [falling, full curve, poor fit] | -26.1% | 
14 | Cc1ccc(NS(=O)(=O)c2cc(C(=O)O)ccc2Cl)cc1 | 130 nM [falling, partial curve, poor fit] |  | 
15 | CCCCNC(=O)O[C@@H]1C[C@@H]2CCN3C(=O)CCC[C@H]([C@H]1CC)[C@H]23 |  | 23.9% | 3660 nM [rising, partial curve, poor fit]
16 | CC1CCCC(C)N1CCCNC(=O)C1CCCN(c2ncnc3c2nc2n3CCCCC2)C1 (stereo unspecified) | 29100 nM [falling, single point] | 45.8% | 
17 | O=C(CCSc1nc(-c2ccc3c(c2)OCO3)cc(C(F)(F)F)n1)NCc1ccco1 | 2590 nM [rising, full curve] | -0.184% | 
18 | CC(=O)c1cccc(OCc2cc(C(=O)N(C)CCc3ccccn3)no2)c1 |  | -6.9% | 
19 | COc1ccc(C(=O)Nc2nnc(Cc3ccc(OC)c(OC)c3)s2)c(OC)c1 |  | -19.9% | 
20 | COCCOCCn1cnc2ccccc21 | 116 nM [falling, full curve, poor fit] | -133% | 25900 nM [falling, partial curve]

Row | SMILES | AC50 [1] | cell number change | AC50 [2]
21 | Cc1ccc(Nc2ncnc3c2cnn3C)cc1 | 920 nM [falling, full curve] | -15.4% | 
22 | COc1ccc(OCC(=O)Nc2ccc3oc(=O)ccc3c2)cc1 | 6510 nM [falling, single point] | 5.41% | 
23 | CC(=O)c1cc2c(cc1NC(=O)CCNC(=O)c1ccccc1Cl)OCO2 | 820 nM [rising, single point] | 22.9% | 
24 | CCCCC(=O)Nc1ccccc1N1CCOCC1 |  | -6.78% | 
25 | O=C(Nc1ccc(S(=O)(=O)N2CCOCC2)cc1)c1cccnc1 | 29100 nM [falling, single point] | -35.1% | 29100 nM [falling, single point]
26 | CCC1=NN(S(=O)(=O)c2ccc(C)cc2)C(O)(C(F)(F)F)C1 (stereo unspecified) | 20600 nM [rising, single point] | 35.1% | 
27 | COc1ccc(C(CNC(=O)c2ccc(-c3ccccc3Cl)o2)N2CCOCC2)cc1 (stereo unspecified) |  | -23.9% | 
28 | CCCC1(CCC)NC(=O)N(CC(=O)N2CCN(C(=O)c3ccco3)CC2)C1=O | 731 nM [falling, full curve] | -51.6% | 2060 nM [falling, full curve]
29 | O=C(CNS(=O)(=O)c1ccccc1)N/N=C/c1ccc(O)cc1 | 6510 nM [rising, partial curve, poor fit] |  | 
30 | Cc1nn(Cc2ccc(Cl)c(Cl)c2)c(C)c1NC(=O)c1cn(-c2ccccc2)nc1-c1ccccc1 | 7310 nM [rising, partial curve] | 41.4% | 366 nM [rising, full curve]
31 | COc1ccc(CCNC(=O)c2ccc(N(C)S(=O)(=O)c3ccc(C)cc3)cc2)cc1 |  |  | 1300 nM [rising, full curve, poor fit]
32 | CCOC(=O)CC(NC(=O)c1ccc(C)cc1)c1ccc(OC)cc1 (stereo unspecified) |  | 21.6% | 5.17 nM [rising, full curve, poor fit]
33 | O=C(OCc1c(F)cccc1Cl)c1cnc(Cl)c(Cl)c1 | 6510 nM [rising, single point] | 53.8% | 14600 nM [rising, partial curve, poor fit]
34 | O=S(=O)(N1CCCCC1)n1c(Cc2ccccc2)nc2ccccc21 | 366 nM [rising, single point] |  | 
35 | Cc1cc(C)cc(NC(=O)CC2NCCNC2=O)c1 (stereo unspecified) | 651 nM [falling, single point] | 10.3% | 
36 | CC(C)Cn1c(SCC(=O)NCCCN2CCCC2=O)nc2ccccc21 |  |  | 366 nM [rising, single point]
37 | C=CCN=C(C)C1=C(O)CCC1=O |  | -173% | 29100 nM [falling, single point]
38 | C/C=C(/C)C(=O)Nc1cccc(C2=NOC3(C2)C[C@@H](C(N)=O)N(C(=O)CC(c2ccccc2)c2ccccc2)C3)c1 (stereo partly specified) | 3260 nM [rising, single point] |  | 
39 | CC(C)(C)C(=O)Nc1cc(NC(=O)C(C)(C)C)cc(C(=O)Nc2cc(C(=O)O)cc(C(=O)O)c2)c1 | 29100 nM [rising, single point] | -1.69% | 
40 | O=C(NCCC1=CCCCC1)c1ccc(=O)oc1 | 4.11 nM [falling, full curve, poor fit] | -0.34% | 

Row | SMILES | AC50 [1] | cell number change | AC50 [2]
41 | Cc1nc(C(=O)Nc2ccc(Cl)cc2Cl)nn1-c1cc(OC(C)C)c(Cl)cc1Cl |  | 6.9% | 
42 | CC(C)COCc1ccc(O)c2ncccc12 | 116 nM [falling, full curve, poor fit] | -10.3% | 
43 | COc1cccc(NC(=O)CN(C)C(=O)c2ccc(-c3ccc(Cl)cc3)o2)c1 | 3660 nM [rising, partial curve] |  | 
44 | O=C(CSc1ncn[nH]1)OCN1C(=O)c2ccccc2C1=O | 1840 nM [falling, partial curve] | 1.94% | 
45 | CCN(CC)S(=O)(=O)c1cc(NC(=O)C(C)N2CCN(Cc3ccc4c(c3)OCO4)CC2)ccc1C (stereo unspecified) | 18400 nM [rising, partial curve] | 30.6% | 20600 nM [rising, single point]
46 | Cc1c(Br)c(C(F)(F)F)nn1CC(=O)N1CCCC1 | 731 nM [falling, full curve, poor fit] | -30.7% | 5170 nM [falling, full curve, poor fit]
47 | Cn1c(NC(=O)c2cccs2)cc(=O)n(C)c1=O |  | -16.5% | 651 nM [falling, full curve, poor fit]
48 | O=C(NNC(=O)C1CC(=O)N(Cc2ccccc2)C1)c1ccc(F)cc1 (stereo unspecified) |  | -11% | 4.11 nM [falling, full curve, poor fit]
49 | CCC(C)Nc1nc(CN2CCOCC2)nc2sc3c(c12)CCC3 (stereo unspecified) |  | 92.9% | 
50 | O=C(CCc1nc2ccccc2c(=O)[nH]1)Nc1cccc(S(=O)(=O)N2CCCCC2)c1 | 1640 nM [falling, single point] | -11.6% | 
51 | CCOc1ccc(OCC)c(NC(=O)C2CCN(S(=O)(=O)c3cccc4nonc34)CC2)c1 | 14600 nM [falling, partial curve] | -65.7% | 18400 nM [falling, single point]
52 | c1ccc(-c2csc(Nc3ccc4c(c3)OCCO4)n2)cc1 | 461 nM [rising, single point] | -11.4% | 
53 | COc1cc(OC)cc(C(=O)NNC(=S)NC(=O)c2cccnc2)c1 |  | -5.24% | 
54 | O=[N+]([O-])c1ccc(Cl)c(S(=O)(=O)Nc2ccc(-c3ccc(N4CCOCC4)nn3)cc2)c1 |  | 76.4% | 25900 nM [rising, single point]
55 | Cn1c(=O)c2c(c3ccccc31)OC(C)(C)CC2 | 580 nM [rising, partial curve, poor fit] | 1.17% | 731 nM [rising, single point]
56 | Cc1cc(=O)oc2cc(OCC(=O)Nc3c(Cl)cccc3C(F)(F)F)ccc12 |  | -9.83% | 
57 | COC(=O)C1=C(C)Nc2nnnn2C1c1cc(OC)ccc1OC (stereo unspecified) | 14600 nM [rising, single point] | 3.49% | 
58 | COc1ccc(S(=O)(=O)N[C@@H](C)C(=O)OCC(=O)Nc2cc3oc4ccccc4c3cc2OC)cc1 | 2590 nM [rising, single point] | 20.4% | 
59 | COC(=O)Cc1c(O)ccn(CCc2c[nH]c3ccccc23)c1=O | 6510 nM [falling, single point] | -41.1% | 7310 nM [falling, single point]

Given in markdown: three of the compounds above.

| Row | SMILES | AC50 [1] | cell number change | AC50 [2] |
| --- | --- | --- | --- | --- |
| 6 | COC(=O)CCCCCCCCC(O)CN1CCCCC1 (stereo unspecified) | 3260 nM [falling, full curve, poor fit] | -26.2% | 1460 nM [falling, full curve, poor fit] |
| 29 | O=C(CNS(=O)(=O)c1ccccc1)N/N=C/c1ccc(O)cc1 | 6510 nM [rising, partial curve, poor fit] |  |  |
| 49 | CCC(C)Nc1nc(CN2CCOCC2)nc2sc3c(c12)CCC3 (stereo unspecified) |  | 92.9% |  |
